Here are results for 9 targets from the supplement of paper PMC12819154, “High-throughput peptide-centric local stability assay extends protein–ligand identification to membrane proteins, tissues and bacteria” (Nature Structural & Molecular Biology, 2025).

By UniProt entry, the sequences of proteins in these tests, tags left out. Where a name states a change or a piece, a line headed by the entry shows the natural chain unless it says otherwise.
UniProt Q9P2G1: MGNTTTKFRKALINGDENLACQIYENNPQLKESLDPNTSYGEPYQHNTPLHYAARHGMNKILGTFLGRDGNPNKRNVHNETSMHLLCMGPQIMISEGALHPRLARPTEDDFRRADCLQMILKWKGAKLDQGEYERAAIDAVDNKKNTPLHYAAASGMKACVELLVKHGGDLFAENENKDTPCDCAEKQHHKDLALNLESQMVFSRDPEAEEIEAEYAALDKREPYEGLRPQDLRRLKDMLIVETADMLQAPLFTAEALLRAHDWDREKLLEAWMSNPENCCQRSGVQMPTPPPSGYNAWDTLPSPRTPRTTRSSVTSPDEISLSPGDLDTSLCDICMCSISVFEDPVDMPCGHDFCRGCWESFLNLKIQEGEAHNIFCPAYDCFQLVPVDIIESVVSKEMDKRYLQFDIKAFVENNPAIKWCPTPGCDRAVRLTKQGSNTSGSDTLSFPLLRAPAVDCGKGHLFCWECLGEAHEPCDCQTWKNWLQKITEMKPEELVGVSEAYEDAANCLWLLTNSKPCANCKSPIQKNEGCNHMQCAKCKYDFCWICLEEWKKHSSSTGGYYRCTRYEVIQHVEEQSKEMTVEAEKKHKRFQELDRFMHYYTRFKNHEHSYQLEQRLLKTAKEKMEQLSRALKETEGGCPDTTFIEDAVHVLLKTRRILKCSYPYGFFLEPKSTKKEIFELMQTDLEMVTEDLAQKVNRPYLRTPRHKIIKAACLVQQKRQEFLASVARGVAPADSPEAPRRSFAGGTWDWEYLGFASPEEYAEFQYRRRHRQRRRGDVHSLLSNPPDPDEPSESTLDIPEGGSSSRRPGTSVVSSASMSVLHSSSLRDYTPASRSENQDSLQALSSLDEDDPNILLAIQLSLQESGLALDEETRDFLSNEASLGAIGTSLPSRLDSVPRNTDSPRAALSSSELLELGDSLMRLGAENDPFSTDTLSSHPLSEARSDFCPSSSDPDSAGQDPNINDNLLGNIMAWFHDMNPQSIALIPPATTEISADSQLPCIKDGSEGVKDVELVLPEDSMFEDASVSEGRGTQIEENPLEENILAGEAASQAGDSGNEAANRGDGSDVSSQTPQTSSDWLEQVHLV
UniProt Q9NXE4: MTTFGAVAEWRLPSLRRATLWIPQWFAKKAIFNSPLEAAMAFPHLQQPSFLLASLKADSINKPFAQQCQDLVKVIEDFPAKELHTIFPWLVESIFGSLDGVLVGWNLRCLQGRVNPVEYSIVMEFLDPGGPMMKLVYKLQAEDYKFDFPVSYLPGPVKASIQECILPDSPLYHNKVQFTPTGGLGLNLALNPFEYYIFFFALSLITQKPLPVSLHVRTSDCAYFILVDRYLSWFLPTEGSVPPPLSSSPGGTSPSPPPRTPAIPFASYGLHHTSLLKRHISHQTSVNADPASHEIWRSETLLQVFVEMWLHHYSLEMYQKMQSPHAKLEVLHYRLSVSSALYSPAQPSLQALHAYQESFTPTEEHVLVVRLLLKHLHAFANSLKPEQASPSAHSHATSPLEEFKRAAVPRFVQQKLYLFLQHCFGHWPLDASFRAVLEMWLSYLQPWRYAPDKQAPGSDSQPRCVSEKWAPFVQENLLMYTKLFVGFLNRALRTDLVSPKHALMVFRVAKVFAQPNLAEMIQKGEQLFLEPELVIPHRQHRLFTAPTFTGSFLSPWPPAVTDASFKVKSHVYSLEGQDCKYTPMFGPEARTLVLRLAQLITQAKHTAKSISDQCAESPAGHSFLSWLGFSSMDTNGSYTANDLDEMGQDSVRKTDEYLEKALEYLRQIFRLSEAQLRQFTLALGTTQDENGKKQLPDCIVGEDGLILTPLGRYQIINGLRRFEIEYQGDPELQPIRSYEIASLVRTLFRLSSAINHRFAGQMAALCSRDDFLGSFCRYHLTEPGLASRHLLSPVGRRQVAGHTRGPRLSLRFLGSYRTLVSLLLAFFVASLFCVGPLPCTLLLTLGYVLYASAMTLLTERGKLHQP
UniProt Q9P1Z2: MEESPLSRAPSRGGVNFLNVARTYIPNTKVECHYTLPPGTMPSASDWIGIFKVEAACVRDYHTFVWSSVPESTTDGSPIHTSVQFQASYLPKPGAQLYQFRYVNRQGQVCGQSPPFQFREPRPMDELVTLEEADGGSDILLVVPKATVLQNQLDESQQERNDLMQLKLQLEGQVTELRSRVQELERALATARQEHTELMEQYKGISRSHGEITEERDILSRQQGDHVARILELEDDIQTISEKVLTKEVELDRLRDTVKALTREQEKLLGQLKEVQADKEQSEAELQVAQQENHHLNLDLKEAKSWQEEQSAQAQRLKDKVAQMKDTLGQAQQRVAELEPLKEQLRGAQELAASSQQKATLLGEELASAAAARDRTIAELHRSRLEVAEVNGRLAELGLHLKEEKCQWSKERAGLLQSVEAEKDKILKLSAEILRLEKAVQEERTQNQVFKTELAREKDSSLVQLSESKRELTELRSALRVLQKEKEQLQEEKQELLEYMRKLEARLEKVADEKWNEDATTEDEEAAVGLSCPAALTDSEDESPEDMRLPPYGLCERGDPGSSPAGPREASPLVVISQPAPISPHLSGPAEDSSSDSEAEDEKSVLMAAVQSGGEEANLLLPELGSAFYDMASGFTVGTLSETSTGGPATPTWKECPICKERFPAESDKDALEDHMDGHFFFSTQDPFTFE
UniProt Q9NY93: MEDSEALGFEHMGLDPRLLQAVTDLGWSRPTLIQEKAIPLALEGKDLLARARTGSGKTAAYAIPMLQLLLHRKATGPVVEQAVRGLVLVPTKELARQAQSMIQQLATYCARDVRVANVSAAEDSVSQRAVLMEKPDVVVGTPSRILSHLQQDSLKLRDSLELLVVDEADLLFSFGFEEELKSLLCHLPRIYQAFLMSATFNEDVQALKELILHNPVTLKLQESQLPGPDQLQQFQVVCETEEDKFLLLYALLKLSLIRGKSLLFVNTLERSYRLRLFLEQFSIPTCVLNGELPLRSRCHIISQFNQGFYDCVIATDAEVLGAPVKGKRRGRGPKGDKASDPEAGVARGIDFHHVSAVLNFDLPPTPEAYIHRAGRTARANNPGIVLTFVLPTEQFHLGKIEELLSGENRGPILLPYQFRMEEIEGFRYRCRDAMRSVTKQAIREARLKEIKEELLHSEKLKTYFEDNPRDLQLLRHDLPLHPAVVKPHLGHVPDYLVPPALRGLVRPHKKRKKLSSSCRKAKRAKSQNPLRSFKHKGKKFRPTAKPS
UniProt Q9NZQ9: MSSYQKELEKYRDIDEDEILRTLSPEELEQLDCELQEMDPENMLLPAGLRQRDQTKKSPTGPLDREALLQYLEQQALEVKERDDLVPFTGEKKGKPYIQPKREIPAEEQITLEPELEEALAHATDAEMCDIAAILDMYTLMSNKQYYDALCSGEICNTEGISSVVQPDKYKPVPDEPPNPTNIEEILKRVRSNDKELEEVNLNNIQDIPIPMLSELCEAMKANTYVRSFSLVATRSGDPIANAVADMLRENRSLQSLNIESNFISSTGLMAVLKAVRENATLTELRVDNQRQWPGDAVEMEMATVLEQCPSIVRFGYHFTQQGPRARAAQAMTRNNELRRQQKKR
UniProt Q9P0J7: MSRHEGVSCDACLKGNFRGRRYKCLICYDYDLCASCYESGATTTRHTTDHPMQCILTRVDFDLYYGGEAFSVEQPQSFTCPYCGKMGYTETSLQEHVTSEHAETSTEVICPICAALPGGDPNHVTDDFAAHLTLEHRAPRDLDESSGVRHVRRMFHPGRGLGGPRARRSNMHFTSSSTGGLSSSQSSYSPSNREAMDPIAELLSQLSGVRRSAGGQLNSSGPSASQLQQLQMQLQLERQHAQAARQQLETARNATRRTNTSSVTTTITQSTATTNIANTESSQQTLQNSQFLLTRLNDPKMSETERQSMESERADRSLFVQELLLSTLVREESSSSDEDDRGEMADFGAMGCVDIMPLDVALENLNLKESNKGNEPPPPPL
UniProt Q9UGV2: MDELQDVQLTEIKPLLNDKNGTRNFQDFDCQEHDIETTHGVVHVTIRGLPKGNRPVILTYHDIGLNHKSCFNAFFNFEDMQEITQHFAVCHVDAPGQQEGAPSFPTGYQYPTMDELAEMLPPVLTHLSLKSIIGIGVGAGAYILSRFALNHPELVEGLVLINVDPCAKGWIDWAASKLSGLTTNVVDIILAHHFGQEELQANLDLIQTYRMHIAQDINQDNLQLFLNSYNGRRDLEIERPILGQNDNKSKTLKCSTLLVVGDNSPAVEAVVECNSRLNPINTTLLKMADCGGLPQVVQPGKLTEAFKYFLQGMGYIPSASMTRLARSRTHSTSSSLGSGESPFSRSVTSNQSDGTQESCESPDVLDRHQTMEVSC
UniProt Q9P246, whole entry: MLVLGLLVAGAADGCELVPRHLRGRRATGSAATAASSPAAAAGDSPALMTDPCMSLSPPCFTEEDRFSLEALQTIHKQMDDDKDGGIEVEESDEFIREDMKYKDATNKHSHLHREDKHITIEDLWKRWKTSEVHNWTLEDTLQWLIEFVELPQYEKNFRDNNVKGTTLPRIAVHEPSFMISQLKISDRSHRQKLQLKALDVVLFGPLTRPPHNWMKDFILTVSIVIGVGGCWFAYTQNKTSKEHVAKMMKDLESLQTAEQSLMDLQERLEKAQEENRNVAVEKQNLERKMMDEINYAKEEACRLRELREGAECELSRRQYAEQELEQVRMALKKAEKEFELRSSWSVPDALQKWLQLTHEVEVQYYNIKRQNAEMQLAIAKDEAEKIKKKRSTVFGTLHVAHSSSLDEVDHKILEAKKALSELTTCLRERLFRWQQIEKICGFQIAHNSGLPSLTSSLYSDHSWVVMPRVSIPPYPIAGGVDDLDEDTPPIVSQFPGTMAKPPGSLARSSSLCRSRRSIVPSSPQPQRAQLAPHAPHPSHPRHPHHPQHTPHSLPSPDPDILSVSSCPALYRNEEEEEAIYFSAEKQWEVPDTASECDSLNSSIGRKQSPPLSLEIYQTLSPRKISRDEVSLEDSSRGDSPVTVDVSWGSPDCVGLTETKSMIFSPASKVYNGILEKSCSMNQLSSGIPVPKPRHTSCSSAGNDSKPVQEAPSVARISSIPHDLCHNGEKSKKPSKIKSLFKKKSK

The other results are listed elsewhere or left out. Small differences around the control level are noise.

Compound in this experiment: Cc1nc(Nc2ncc(C(=O)Nc3c(C)cccc3Cl)s2)cc(N2CCN(CCO)CC2)n1 [dasatinib]
Kind of experiment: log2 fold change of tryptic peptide abundance, ligand vs vehicle (limited proteolysis) (log2 ratio); higher = more trypsin-susceptible (destabilized). The note with it: ligand concentration: 5 uM; sample: K562 cleared lysate.
As for “ANKIB1 (peptide sequence: WCPTPGCDR, peptide start residue: 421) (UniProt Q9P2G1)”, the log2 fold change stood at 0.164.
The figure for “SMPD4 (peptide sequence: DDFLGSFCR, peptide start residue: 769) (UniProt Q9NXE4)” is -0.33; for “CALCOCO1 (peptide sequence: EKEQLQEEK, peptide start residue: 485) (UniProt Q9P1Z2)” it is -0.729.
With “DDX56 (peptide sequence: LKEIKEELLHSEK, peptide start residue: 447) (UniProt Q9NY93)” the figure was -0.256; with “UniProt Q9P225 (peptide sequence: KQEFRDDIK, peptide start residue: 2794)”, -0.274.
With “UniProt Q9NZQ9 (peptide sequence: FGYHFTQQGPR, peptide start residue: 315)” the figure was -0.0935; with “KCMF1 (peptide sequence: QSMESER, peptide start residue: 307) (UniProt Q9P0J7)”, 0.145; with “NDRG3 (peptide sequence: RDLEIERPILGQNDNK, peptide start residue: 233) (UniProt Q9UGV2)”, -0.395.
With “STIM2 (peptide sequence: VYNGILEK, peptide start residue: 670) (UniProt Q9P246)”, the log2 fold change is 0.16.
